Laboratory results from article PMC12040169 (PLOS Biology, 2025).
This is one part of the list.

system: T1, CTL2-GFP (C. trachomatis L2/434/Bu, GFP-expressing); design: species or system HeLa; Intracellular C. trachomatis growth in HeLa cells, bulk GFP fluorescence relative to DMSO; settings: bulk GFP, single well; 28.5 h, 10 µM; inhibitor
T1 construct: L2/434/Bu, GFP-expressing

Structure (SMILES)	% of control remaining [%]
COc1ccc(/C(N)=N/OC(=O)CN(C)S(=O)(=O)c2ccccc2)cc1 [CBK267683]	132.048
OCCn1ncc2c(Nc3cccc(Cn4cncn4)c3)ncnc21 [CBK305965]	109.371
N#CCCCN1CCCN(c2cc(OCC3COc4ccccc4O3)ncn2)CC1 (centres unmarked) [CBK083391T]	140.184
CC1CCN(c2ccc([N+](=O)[O-])c(N3CCC(C)CC3)c2)CC1 [CBK001367]	119.937
CC(=O)N1CC[C@@H](CC(=O)O)[C@@H](CC2=NCCc3ccc(C(C)(C)C)cc32)C1 [CBK289165]	139.071
COc1ccccc1CN(CC(C)(C)CN)C(=O)NCc1ccc(F)cc1 [CBK002470C]	88.8648
CN(C)c1ccc(-c2ncnn2CC(F)(F)F)cn1 [CBK307215]	70.0881
O=C(Cc1cc(F)cc(F)c1F)N1CCC(Sc2ccc(-c3ccccc3)cc2)CC1 [CBK131952]	103.188
Cc1ccc2cc(COC(=O)c3ccc(N4CCOCC4)nc3)c(Cl)nc2c1 [CBK295336]	150.713
Cc1nn(C)cc1S(=O)(=O)N1CCC(c2cccc(Cc3ccccc3Cl)n2)CC1 [CBK286115]	92.4584
CCCC/C=C/c1cnc2[nH]c(=O)n(CCc3cccnc3)c2n1 [CBK064496]	146.747
CC1CCc2c(sc3ncnc(NC4CCN(CC(N)=O)CC4)c23)C1 (centres unmarked) [CBK305008]	101.544
O=C(C1CCCCC1)N1CCCC(c2cc3cccnc3[nH]2)C1 (centres unmarked) [CBK284938]	88.9809
Cn1c(=O)c2[nH]c(N3CCCCC3)nc2n(C)c1=O [CBK027630]	87.5009
Cc1nc(CN2C(=O)CC(Cc3cnn(C)c3)C2=O)nc2ccccc12 (centres unmarked) [CBK305415]	117.04
Cc1nc(Nc2ccc(Cl)cc2)nc(OC2CCNCC2)n1 [CBK024848]	132.192
Cc1ccc(C(=O)/C=C\Nc2ccc(S(=O)(=O)Nc3cc(C)nc(C)n3)cc2)cc1 [CBK264384]	17.8492
NC(=O)C1CCN(CC(=O)Nc2cc(C(F)(F)F)ccc2Cl)CC1 [CBK269776]	120.642
COc1ccccc1Oc1ccc(NS(=O)(=O)c2cccc(C(=O)O)c2)cc1 [CBK296728]	137.247
O=C1CC[C@@H](NCc2cccc(O)c2)[C@H](c2cc(F)cc(F)c2)N1 [CBK282909]	107.875
O=C(Cc1cccs1)N1CCC(n2nc(C3CC3)ccc2=O)CC1 [CBK284243]	147.515
c1cnc(OC2CCN(Cc3ccc4c(c3)OCO4)CC2)c(OCCN2CCOCC2)n1 [CBK082925T]	87.836
O=C(NCCO)c1ccc(-c2cnc3[nH]c(=O)n(C4CCOCC4)c3n2)cc1 [CBK065041]	87.9854
CCC1(C)CC(C(N)=S)CCO1 (centres unmarked) [CBK008954]	128.336
CCc1ccc(OCC(=O)c2ccc(O)c(CN(C)C)c2O)cc1 [CBK264438C]	114.997

Structure (SMILES)	% of control remaining [%]
Cc1cn2c(=O)c(C(=O)Nc3ccc(F)c(C(F)(F)F)c3)cnc2s1 [CBK287713]	128.692
CN(C)C(=O)Cc1ccc(-c2ccccc2)cc1 [CBK012162]	181.017
O=C(CN1C(=O)c2ccccc2C1=O)Nc1ccccc1C(=O)N1CCN(c2ccccc2)CC1 [CBK269251]	112.064
Cc1ccc(C)c(OCC(=O)N(Cc2nc(-c3ccccc3)no2)C2CCCCC2)c1 [CBK269067]	111.861
Cc1ccsc1CN(Cc1cncn1C)CC(C)O (centres unmarked) [CBK283033]	114.189
COc1cccc(CC(=O)Nc2ncccc2C)c1 [CBK304982]	125.47
O=C(O)CCc1nnc(S)n1Cc1ccccc1 [CBK286926]	114.071
CC(C)N1CNc2c(c(=O)nc(O)n2Cc2ccccc2)C1 [CBK291139]	138.412
c1cnn(CC2CCCCN2c2ncnc3ccsc23)c1 (centres unmarked) [CBK304843]	116.965
CCOC(=O)c1c(NC(=O)NCc2ccncc2)sc2c1CCC2 [CBK307591]	136.075
O=C(Nc1ccc(Cl)c(Cl)c1)c1cnc2sccn2c1=O [CBK287449]	126.85
COc1cc([N+](=O)[O-])ccc1NC(=S)Nc1cccc(S(=O)(=O)N2CCOCC2)c1 [CBK267042]	185.679
CCC(=O)Nc1ccc(-n2cnc(C(=O)NCc3cccnc3)c2)nc1 [CBK288603]	100.981
COC(=O)c1scc(NS(=O)(=O)c2ccc(Cl)cc2Cl)c1C(=O)OC [CBK026681]	94.5228
Nc1nc(OCc2ccncc2)cnc1-c1cnn(Cc2ccccc2)c1 [CBK145194]	117.217
O=C(CSc1nnc(Cc2cccc3ccccc23)n1-c1ccccc1)NC1CCCCC1 [CBK266052]	120.85
CC(C)n1cc(C(=O)NCc2cccnc2N(C)C2CCCCC2)cn1 [CBK307593]	116.542
CCOc1ncccc1NC(=O)c1cnc2c(cnn2CC(C)C)c1 [CBK304288]	110.924
COCCn1ccnc1C1CCCN(C(=O)COc2ccccc2Cl)C1 (centres unmarked) [CBK307211]	120.406
c1ccc2c3c([nH]c2c1)C12CCN(CC1)C(c1ccncc1)N2CC3 (centres unmarked) [CBK284434]	138.302
CCc1n[nH]c(C(=O)NCC(c2ccc(F)cc2)N2CCCC2)c1C (centres unmarked) [CBK282630]	161.972
CC(=O)Nc1ccc(-c2ccc(C(=O)NC3CC3)cn2)cc1 [CBK158854]	113.534
FC(F)(F)c1cccnc1OCc1cccnc1 [CBK115780]	110.678
O=c1c(N2CCC(Sc3ccccc3)CC2)nccn1Cc1ccc(-n2cncn2)cc1 [CBK153655]	82.4328
CN(C)c1ccc(CN2CC[C@H](c3nc4cccc(C(N)=O)c4[nH]3)C2)cc1 [CBK289414]	104.218

2 compounds picked at random from the list so far:
Structure (SMILES)	% of control remaining [%]
COc1cc([N+](=O)[O-])ccc1NC(=S)Nc1cccc(S(=O)(=O)N2CCOCC2)c1 [CBK267042]	185.679
c1cnn(CC2CCCCN2c2ncnc3ccsc23)c1 (centres unmarked) [CBK304843]	116.965
